Values of other authors as cited in patent US10016409B2, “Method for improving interstitial flow” (priority 2012, dated 2018).
At least one structure is not confirmed: it was looked up by name or label, or the drawing left a doubt.

Tested on: MCI patients
Details: clinical trials, Guidelines for Management of Dementia; cited from earlier work

SMILES: COc1ccc2c3c1O[C@H]1C[C@@H](O)C=C[C@@]31CCN(C)C2 [galantamine]
- effectiveness on MCI patients: very limited or is not present
